The list shows a part of the results.
Columns and labels:
Experiment in all cases: protein microarray (ProtoArray v5.0), streptavidin-Alexa Fluor 647
Details in all cases: 3'-biotin; 20 mM Tris (pH 7.5), 5 mM MgCl2, 100 mM KCl, 0.1% Tween-20, A/T-rich and random oligonucleotide blockers; temperature not stated; high values mean tight binding
Secretagogin (human) = tested on: Secretagogin (human)
[1] = tested on: Selenium-binding protein 1 (human)
Selenoprotein P (human) = tested on: Selenoprotein P (human)
Septin-12 (human) = tested on: Septin-12 (human)
Septin-2 (human) = tested on: Septin-2 (human)
Sequestosome-1 (human) = tested on: Sequestosome-1 (human)
[2] = tested on: Serine protease inhibitor Kazal-type 2 (human)
[3] = tested on: Serine-protein kinase ATM (human)
[4] = tested on: Serine/threonine-protein kinase 16 (human)
[5] = tested on: Serine/threonine-protein kinase 40 (human)
[6] = tested on: Serine/threonine-protein kinase Chk2 (human)
[7] = tested on: Serine/threonine-protein kinase D2 (human)
[8] = tested on: Serine/threonine-protein kinase MRCK alpha (human)
[9] = tested on: Serine/threonine-protein kinase Nek6 (human)
[10] = tested on: Serine/threonine-protein kinase PAK 2 (human)
[11] = tested on: Serine/threonine-protein kinase Sgk3 (human)
[12] = tested on: Serine/threonine-protein kinase ULK4 (human)
[13] = tested on: Serine/threonine-protein phosphatase 2A 56 kDa regulatory subunit gamma isoform (human)
[14] = tested on: Serine/threonine-protein phosphatase 2A 65 kDa regulatory subunit A beta isoform (human)
[15] = tested on: Serine/threonine-protein phosphatase 4 regulatory subunit 3A (human)

GGGAGGCTGAGGCAGG [G4-1 biotinylated (PQS2)]
binding signal (Secretagogin (human)): -0.363 z-score | binding signal [1]: -0.344 z-score | binding signal (Selenoprotein P (human)): -0.348 z-score | binding signal (Septin-12 (human)): -0.307 z-score | binding signal (Septin-2 (human)): -0.356 z-score | binding signal (Sequestosome-1 (human)): -0.315 z-score | binding signal [2]: -0.324 z-score | binding signal [3]: -0.334 z-score | binding signal [4]: -0.294 z-score | binding signal [5]: -0.292 z-score | binding signal [6]: -0.267 z-score | binding signal [7]: -0.307 z-score | binding signal [8]: -0.352 z-score | binding signal [9]: -0.312 z-score | binding signal [10]: -0.245 z-score | binding signal [11]: -0.244 z-score | binding signal [12]: -0.32 z-score | binding signal [13]: -0.353 z-score | binding signal [14]: -0.359 z-score | binding signal [15]: -0.338 z-score

From publication PMC5996148
